Taken from: PubChem BioAssay AID1259254 (NCATS, 2017)
Assay: 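Finding genes that stop cells copying their DNA twice in one cycle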 (primary screen). System: human HCT116 colorectal cancer cells. Knock-down reagent: single siRNA against human genes. Duration: 3 days. Measurement: 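Nuclei stained with Hoechst and imaged; cell-cycle phase assigned by DNA content; G2 share scaled per plate, non-targeting siRNA 0%, GMNN siRNA 100%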. Direction: G2 robust z-score and G2 cells, % of GMNN control: higher = more G2 cells, more excess DNA replication. Active means: 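Active siRNAs have a G2 robust z of 5 or more median absolute deviations over the median, which in these data means about 38% or higher of GMNN control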.
Shown is an unselected part of about 59,000 deposited reagents. About 1,550 of all reagents (2.6%) were called active. 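G2 share is only a proxy for re-replication; each gene was hit by three separate siRNAs, and active genes were retested.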 Reagents against one gene are numbered here. Not all columns of the deposit are shown. The record does not give: the amount of reagent.

Which result is listed for MOB3C (MOB kinase activator 3C) #1?
G2 robust z-score: 0.284; G2 cells, % of GMNN control: 4.97; outcome: inactive

What is on record for MOB3C (MOB kinase activator 3C) #2?
G2 robust z-score: -0.93; G2 cells, % of GMNN control: -3.58; outcome: inactive

With MOB3C (MOB kinase activator 3C) #3, what was measured?
G2 robust z-score: 3.96; G2 cells, % of GMNN control: 30.9; outcome: inactive

With GCAT (glycine C-acetyltransferase) #1, what does the deposit list?
G2 robust z-score: 2.04; G2 cells, % of GMNN control: 17.3; outcome: inactive

For GCAT (glycine C-acetyltransferase) #2, what was measured?
G2 robust z-score: 0.248; G2 cells, % of GMNN control: 4.71; outcome: inactive

What did the screen give for GCAT (glycine C-acetyltransferase) #3?
G2 robust z-score: -0.719; G2 cells, % of GMNN control: -2.09; outcome: inactive

For BCAM (basal cell adhesion molecule (Lutheran blood group)) #1, what was measured?
G2 robust z-score: -1.14; G2 cells, % of GMNN control: -5.09; outcome: inactive

Which result is listed for BCAM (basal cell adhesion molecule (Lutheran blood group)) #2?
G2 robust z-score: 1.43; G2 cells, % of GMNN control: 13; outcome: inactive

What is on record for BCAM (basal cell adhesion molecule (Lutheran blood group)) #3?
G2 robust z-score: -0.148; G2 cells, % of GMNN control: 1.93; outcome: inactive

For PARP11 (poly(ADP-ribose) polymerase family member 11) #1, what does the deposit list?
G2 robust z-score: -0.417; G2 cells, % of GMNN control: 0.0312; outcome: inactive

With PARP11 (poly(ADP-ribose) polymerase family member 11) #2, how do the results read?
G2 robust z-score: -0.188; G2 cells, % of GMNN control: 1.65; outcome: inactive

What is on record for PARP11 (poly(ADP-ribose) polymerase family member 11) #3?
G2 robust z-score: -0.936; G2 cells, % of GMNN control: -3.62; outcome: inactive

Which result is listed for SLC12A7 #1?
G2 robust z-score: -0.996; G2 cells, % of GMNN control: -4.04; outcome: inactive

For SLC12A7 #2, what was measured?
G2 robust z-score: 0.216; G2 cells, % of GMNN control: 4.49; outcome: inactive

Which result is listed for SLC12A7 #3?
G2 robust z-score: -1.33; G2 cells, % of GMNN control: -6.38; outcome: inactive

What did the screen give for FBXW12 (F-box and WD repeat domain containing 12) #1?
G2 robust z-score: 2.16; G2 cells, % of GMNN control: 18.2; outcome: inactive

What did the screen give for FBXW12 (F-box and WD repeat domain containing 12) #2?
G2 robust z-score: -0.271; G2 cells, % of GMNN control: 1.06; outcome: inactive

With FBXW12 (F-box and WD repeat domain containing 12) #3, how do the results read?
G2 robust z-score: -0.0865; G2 cells, % of GMNN control: 2.36; outcome: inactive

How did the screen score IZUMO4 (IZUMO family member 4) #1?
G2 robust z-score: -0.734; G2 cells, % of GMNN control: -2.2; outcome: inactive

With IZUMO4 (IZUMO family member 4) #2, what does the deposit list?
G2 robust z-score: 1.17; G2 cells, % of GMNN control: 11.2; outcome: inactive

What did the screen give for IZUMO4 (IZUMO family member 4) #3?
G2 robust z-score: -0.471; G2 cells, % of GMNN control: -0.347; outcome: inactive

How did the screen score SPA17 (sperm autoantigenic protein 17) #1?
G2 robust z-score: 2.1; G2 cells, % of GMNN control: 17.8; outcome: inactive

What is on record for SPA17 (sperm autoantigenic protein 17) #2?
G2 robust z-score: 1.19; G2 cells, % of GMNN control: 11.3; outcome: inactive

With SPA17 (sperm autoantigenic protein 17) #3, how do the results read?
G2 robust z-score: 0.788; G2 cells, % of GMNN control: 8.51; outcome: inactive

3 of these entries, reformatted:
PARP11 (poly(ADP-ribose) polymerase family member 11) #3
- G2 robust z-score: -0.936
- G2 cells, % of GMNN control: -3.62
- outcome: inactive

SLC12A7 #1
- G2 robust z-score: -0.996
- G2 cells, % of GMNN control: -4.04
- outcome: inactive

SLC12A7 #2
- G2 robust z-score: 0.216
- G2 cells, % of GMNN control: 4.49
- outcome: inactive
